Assay results taken from patent publication US10888089B2, “Methods and compositions for controlling fungus-growing ants” (UNIVERSITE PARIS EST CRETEIL VAL DE MARNE, priority 2016, dated 2021).
For part of these data: For at least one compound, name, drawing or mass did not settle the structure. Some of these results come from one statement about several compounds together.

Assays:
Type in all cases: biochemical
[1] = tested on: laccase activity of Acromyrmex octospinosus and of Leucophorus gongylophorus; test: Laccase inhibition (ABTS), ant and fungus garden samples together
Method: Crushing was performed in mortars placed on ice, using pestles. Ants (2 g) and fungus garden (2 g) were crushed in 10 mL of distilled water refrigerated at 4° C. After obtaining crushed matter of homogeneous texture, the whole was centrifuged. Centrifugation was performed at 4° C., 15,000 rpm for 20 min.
For protein precipitation, the supernatant was 80% saturated with ammonium sulphate ((NH4)2SO4). After total dissolution of the ammonium sulphate, the solution obtained is placed at 4° C. for 12 hours. The solution was then centrifuged at a temperature of 4° C., at 15,000 rpm, for 20 min. The pellet obtained is redissolved in a minimum of cold distilled water and then dialysed against 5 litres of distilled water at 4° C. for 12 hours. The extract thus obtained constitutes the crude enzyme extract. These extracts were aliquoted and then stored at −20° C.
Laccase activity was evaluated using 2,2′-azino-bis(3-ethylbenzthiazoline-6-sulphonic acid) (ABTS) as oxidation control substrate. Briefly, ABTS is diluted to 27.4 mg/L in Mcllvain buffer solution (pH 5.2). 150 μL of ABTS solution is incubated with 100 μL of test solution and then incubated for 30 min at 37° C. The measurement of OD at 405 nm is used to determine the amount of oxidised ABTS using Beer-Lambert's law (epsilon=36,000 mM).
The determination of laccase activity is based on a colorimetric method where the substrate ABTS (2,2′-azino-bis(3-ethylbenzthiazoline-6-sulphonic acid) in reduced form (colourless) is oxidised (green colour) in the presence of the enzyme. The method was published by Bourbonnais et al. in 1990 (Oxidation of non-phenolic substrates. An expanded role for laccase in lignin biodegradation. FEBS, 1990, 267, 99-102). To test the inhibition of laccase activity, the molecule tested is added to the reaction mixture in amounts ranging from 0.1 mM to 100 mM. The inhibitors selected for analysis are compounds having antioxidant capacity.

laccase [2] = test: Laccase inhibition (ABTS colorimetric method), ant sample; settings: anti-laccase activity, ABTS substrate, read-out: IC50 Acromyrmex octospinosus
Method: (§1) Crushing was performed in mortars placed on ice, using pestles. […] After obtaining crushed matter of homogeneous texture, the whole was centrifuged. Centrifugation was performed at 4° C., 15,000 rpm for 20 min. For protein precipitation, the supernatant was 80% saturated with ammonium sulphate ((NH4)2SO4). After total dissolution of the ammonium sulphate, the solution obtained is placed at 4° C. for 12 hours. The solution was then centrifuged at a temperature of 4° C., at 15,000 rpm, for 20 min. The pellet obtained is redissolved in a minimum of cold distilled water and then dialysed against 5 litres of distilled water at 4° C. for 12 hours. The extract thus obtained constitutes the crude enzyme extract. These extracts were aliquoted and then stored at -20° C. […] Briefly, ABTS is diluted to 27.4 mg/L in […] buffer solution (pH 5.2). 150 μL of ABTS solution is incubated with 100 μL of test solution and then incubated for 30 min at 37° C. The measurement of OD at 405 nm is used to determine the amount of oxidised ABTS using Beer-Lambert's law (epsilon=36,000 mM). […] The method was published by Bourbonnais et al. in 1990 (Oxidation of non-phenolic substrates. An expanded role for laccase in lignin biodegradation. FEBS, 1990, 267, 99-102). […] The inhibitors selected for analysis are compounds having antioxidant capacity.

laccase [3] = test: Laccase inhibition (ABTS colorimetric method), fungus garden sample; settings: anti-laccase activity, ABTS substrate, read-out: IC50 Leucophorus gongylophorus
Method: as §1

[4] = at a concentration of 0.5 mM (results not shown)

Compound	inhibition of laccase activity ([1]; at concentrations of 0.25 mM)	inhibition of laccase activity [1, 4]	other results
O=C1O[C@H]([C@@H](O)CO)C(O)=C1O [Ascorbic acid]	more than 90%	–	–
O=C(O)c1cc(O)c(O)c(O)c1 [Gallic acid]	more than 90%	–	–
COc1cc(C(=O)O)cc(OC)c1O [Syringic acid]	–	more than 90%	–
O=C(O)/C=C/c1ccc(O)cc1 [Coumaric acid]	–	–	IC50 (laccase [2]): < 250 µM; IC50 (laccase [3]): < 250 µM
COc1cc(/C=C/C(=O)O)ccc1O [Ferulic acid]	–	more than 90%	–
